The exact form of at least one protein or probe is not confirmed. Negatives hold for the conditions tested.
Assays:
GST-ONAC066 [1] = assay: competition with a labelled probe; conditions: 200x unlabeled vs biotin-wJBSL (EMSA); LightShift Chemiluminescent EMSA Kit, 20 uL with 5x EMSA buffer, 2 ug protein, 1 uL biotin probe; competitor 200x, 20 min preincubation; 6% PAGE; recombinant protein; protein details: GST (N-terminal, pGEX-6p-1)
GST-ONAC066 [2] = assay: EMSA; conditions: LightShift Chemiluminescent EMSA Kit, 20 uL with 5x EMSA buffer, 2 ug protein, 1 uL biotin probe; competitor 200x, 20 min preincubation; 6% PAGE; recombinant protein; protein details: GST (N-terminal, pGEX-6p-1)

“GGGAGAAAAAAAGACAGGAAAAAGTTG (double strand) [mJBSL unlabeled competitor]”: no binding (GST-ONAC066 [1]).

“GGGAGAAAAAAAGACAGGAAAAAGTTG (double strand) [mJBSL]”: no binding (GST-ONAC066 [2]).

“GGGAGATGCCGTGACAGGACGCGGTTG (double strand) [wJBSL]”: binds (GST-ONAC066 [2]).

“GGGAGATGCCGTGACAGGACGCGGTTG (double strand) [wJBSL unlabeled competitor]”: binds (GST-ONAC066 [1]).

Source: PMC6593515
